Results are given in words; binding and its absence hold for the method and conditions named. Binding can be weak; no strength is given.
Target: MdNup62^508–613 (truncated MdNup62 in pGBKT7) (Malus domestica (apple))
Experiment: two-hybrid; bait in pGBKT7 and prey in pGADT7 co-transformed into Gold Yeast Two-Hybrid cells; growth and blue colour on SD/-Trp/-Leu/-His/-Ade/+X-α-gal medium

Amino acid sequences for entries named in this document (tags omitted). A change or cut given only in a name is not applied to a line headed by its entry.
UniProt A0A7U3QAH2: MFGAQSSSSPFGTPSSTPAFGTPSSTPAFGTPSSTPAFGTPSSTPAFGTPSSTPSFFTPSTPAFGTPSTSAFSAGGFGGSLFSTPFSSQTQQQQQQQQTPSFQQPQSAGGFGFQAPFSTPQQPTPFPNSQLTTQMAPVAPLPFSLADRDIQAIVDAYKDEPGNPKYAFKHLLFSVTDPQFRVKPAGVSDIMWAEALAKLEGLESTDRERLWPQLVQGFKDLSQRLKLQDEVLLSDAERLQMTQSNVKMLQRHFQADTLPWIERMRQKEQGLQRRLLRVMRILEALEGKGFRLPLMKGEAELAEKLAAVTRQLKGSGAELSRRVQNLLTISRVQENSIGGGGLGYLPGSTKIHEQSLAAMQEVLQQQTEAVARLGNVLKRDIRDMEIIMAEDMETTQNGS

## MdNup54 (open reading frame in pGADT7) (from UniProt A0A7U3QAH2)
  binding: binds

From PMC7566457
